# According to ChEMBL document CHEMBL1126165, “Preparation and evaluation of some hydrophilic phenylacetyl-piperazines as peripherally selective -opioid receptor agonists” (Bioorg Med Chem Lett, 1992):
# Key:
# [1] = Ratio of antinociceptive activity measured using mouse acetylcholine induced abdominal constriction test by s.c. administration to that done by i.c.v.; assay type: functional, Abdomen
# [2] = Lipophilicity was expressed as Log D; details: octanol/water
smiles,measurement,setting,value
CC(=O)N1CCN(C(=O)Cc2cccc([N+](=O)[O-])c2)C(CN2CC[C@H](O)C2)C1 (some centres not stated),Ratio,[1],123
same,logD,[2],-0.1
